Some results were stated once for a whole list of compounds, not compound by compound.
The molecules below were run against T1, recombinant full length LRRK2 over-expressed in SH-SY5Y cells (Homo sapiens, UniProt Q5S007) (assay: Recombinant cellular LRRK2 AlphaScreen assay (LRRK2 Ser935 phosphorylation)). Details: SH-SY5Y cells with BacMam LRRK2, 60 minutes compound incubation.
T1 construct: A BacMam virus expressing full length recombinant LRRK2 was purchased from Invitrogen; host or cells: SH-SY5Y human neuroblastoma cells transduced with BacMam LRRK2 virus
Format: cell-based
Method: Recombinant Cellular LRRK2 AlphaScreen Assay
A BacMam virus expressing full length recombinant LRRK2 was purchased from Invitrogen and amplified by inoculation of SF-9 cells at MOI 0.3 for 4-5 days in Sf-900 III SFM medium supplemented with 3% fetal bovine serum. Infected cell cultures were then centrifuged at 2000 g for 20 minutes, viral supernatant titer determined by anti-gp64 plaque assay and stored at 4° C.
Affinity-purified anti-phospho LRRK2 Ser935 sheep polyclonal antibody (Dzamko et al., 2010, Biochem. J. 430: 405-413) was biotinylated by standard methods (PerkinElmer). Anti-LRRK2 rabbit polyclonal antibody was purchased from Novus Biologicals. AlphaScreen Protein A IgG Kit (including acceptor and donor beads) was purchased from Perkin Elmer.
SH-SY5Y cells were grown in DMEM/F12 medium with 10% dialysed fetal bovine serum and harvested by treatment with 0.5% trypsin-EDTA for 5 minutes at […] followed by centrifugation at 1000 rpm for 4 minutes. The cell pellet was resuspended in Opti-MEM reduced serum media (Invitrogen) at 200,000 cells/ml and mixed with the BacMam LRRK2 virus at MOI=50. 50 μl cell solutions were then dispensed to each well of a 384-well plate and incubated at 37° C., 5% CO2 for 24 hours.
Serial dilutions of test compounds were prepared in Opti-MEM reduced serum media (Invitrogen) and 5.6 ul transferred from compound plate to cell assay plate to achieve a top final assay concentration of 10 uM. DMSO was used in certain wells as controls. Cells were incubated at 37° C., 5% CO2 for 60 minutes. The medium was then removed and cells lysed by addition of 20 ul cell lysis buffer (Cell Signaling Technology) and incubation at 4° C. for 20 minutes. 10 ul of antibody/acceptor bead mix [(1/1000 biotinylated-pS935 LRRK2 antibody, 1/1000 total-LRRK2 antibody, 1/100 Acceptor beads in AlphaScreen detection buffer (25 mM Hepes (pH 7.4), 0.5% Triton X-100, 1 mg/ml Dextran 500 and 0.1% BSA)] was then added to each well and plates incubated for 2 hours at ambient temperature in the dark. 10 μl of donor beads solution (1/33.3 donor beads in AlphaScreen detection buffer) was then added to each well. Following incubation for a further 2 hours at ambient temperature in the dark, plates were read on an EnVision™ plate reader at emission 520-620 nm with excitation 680 nm. Dose response curve data was based on sigmoidal dose-response model.

Sequences of proteins named here, by UniProt entry; tags and fusion partners are left off. A change or cut given only in a name is not applied to a line headed by its entry.
UniProt Q5S007: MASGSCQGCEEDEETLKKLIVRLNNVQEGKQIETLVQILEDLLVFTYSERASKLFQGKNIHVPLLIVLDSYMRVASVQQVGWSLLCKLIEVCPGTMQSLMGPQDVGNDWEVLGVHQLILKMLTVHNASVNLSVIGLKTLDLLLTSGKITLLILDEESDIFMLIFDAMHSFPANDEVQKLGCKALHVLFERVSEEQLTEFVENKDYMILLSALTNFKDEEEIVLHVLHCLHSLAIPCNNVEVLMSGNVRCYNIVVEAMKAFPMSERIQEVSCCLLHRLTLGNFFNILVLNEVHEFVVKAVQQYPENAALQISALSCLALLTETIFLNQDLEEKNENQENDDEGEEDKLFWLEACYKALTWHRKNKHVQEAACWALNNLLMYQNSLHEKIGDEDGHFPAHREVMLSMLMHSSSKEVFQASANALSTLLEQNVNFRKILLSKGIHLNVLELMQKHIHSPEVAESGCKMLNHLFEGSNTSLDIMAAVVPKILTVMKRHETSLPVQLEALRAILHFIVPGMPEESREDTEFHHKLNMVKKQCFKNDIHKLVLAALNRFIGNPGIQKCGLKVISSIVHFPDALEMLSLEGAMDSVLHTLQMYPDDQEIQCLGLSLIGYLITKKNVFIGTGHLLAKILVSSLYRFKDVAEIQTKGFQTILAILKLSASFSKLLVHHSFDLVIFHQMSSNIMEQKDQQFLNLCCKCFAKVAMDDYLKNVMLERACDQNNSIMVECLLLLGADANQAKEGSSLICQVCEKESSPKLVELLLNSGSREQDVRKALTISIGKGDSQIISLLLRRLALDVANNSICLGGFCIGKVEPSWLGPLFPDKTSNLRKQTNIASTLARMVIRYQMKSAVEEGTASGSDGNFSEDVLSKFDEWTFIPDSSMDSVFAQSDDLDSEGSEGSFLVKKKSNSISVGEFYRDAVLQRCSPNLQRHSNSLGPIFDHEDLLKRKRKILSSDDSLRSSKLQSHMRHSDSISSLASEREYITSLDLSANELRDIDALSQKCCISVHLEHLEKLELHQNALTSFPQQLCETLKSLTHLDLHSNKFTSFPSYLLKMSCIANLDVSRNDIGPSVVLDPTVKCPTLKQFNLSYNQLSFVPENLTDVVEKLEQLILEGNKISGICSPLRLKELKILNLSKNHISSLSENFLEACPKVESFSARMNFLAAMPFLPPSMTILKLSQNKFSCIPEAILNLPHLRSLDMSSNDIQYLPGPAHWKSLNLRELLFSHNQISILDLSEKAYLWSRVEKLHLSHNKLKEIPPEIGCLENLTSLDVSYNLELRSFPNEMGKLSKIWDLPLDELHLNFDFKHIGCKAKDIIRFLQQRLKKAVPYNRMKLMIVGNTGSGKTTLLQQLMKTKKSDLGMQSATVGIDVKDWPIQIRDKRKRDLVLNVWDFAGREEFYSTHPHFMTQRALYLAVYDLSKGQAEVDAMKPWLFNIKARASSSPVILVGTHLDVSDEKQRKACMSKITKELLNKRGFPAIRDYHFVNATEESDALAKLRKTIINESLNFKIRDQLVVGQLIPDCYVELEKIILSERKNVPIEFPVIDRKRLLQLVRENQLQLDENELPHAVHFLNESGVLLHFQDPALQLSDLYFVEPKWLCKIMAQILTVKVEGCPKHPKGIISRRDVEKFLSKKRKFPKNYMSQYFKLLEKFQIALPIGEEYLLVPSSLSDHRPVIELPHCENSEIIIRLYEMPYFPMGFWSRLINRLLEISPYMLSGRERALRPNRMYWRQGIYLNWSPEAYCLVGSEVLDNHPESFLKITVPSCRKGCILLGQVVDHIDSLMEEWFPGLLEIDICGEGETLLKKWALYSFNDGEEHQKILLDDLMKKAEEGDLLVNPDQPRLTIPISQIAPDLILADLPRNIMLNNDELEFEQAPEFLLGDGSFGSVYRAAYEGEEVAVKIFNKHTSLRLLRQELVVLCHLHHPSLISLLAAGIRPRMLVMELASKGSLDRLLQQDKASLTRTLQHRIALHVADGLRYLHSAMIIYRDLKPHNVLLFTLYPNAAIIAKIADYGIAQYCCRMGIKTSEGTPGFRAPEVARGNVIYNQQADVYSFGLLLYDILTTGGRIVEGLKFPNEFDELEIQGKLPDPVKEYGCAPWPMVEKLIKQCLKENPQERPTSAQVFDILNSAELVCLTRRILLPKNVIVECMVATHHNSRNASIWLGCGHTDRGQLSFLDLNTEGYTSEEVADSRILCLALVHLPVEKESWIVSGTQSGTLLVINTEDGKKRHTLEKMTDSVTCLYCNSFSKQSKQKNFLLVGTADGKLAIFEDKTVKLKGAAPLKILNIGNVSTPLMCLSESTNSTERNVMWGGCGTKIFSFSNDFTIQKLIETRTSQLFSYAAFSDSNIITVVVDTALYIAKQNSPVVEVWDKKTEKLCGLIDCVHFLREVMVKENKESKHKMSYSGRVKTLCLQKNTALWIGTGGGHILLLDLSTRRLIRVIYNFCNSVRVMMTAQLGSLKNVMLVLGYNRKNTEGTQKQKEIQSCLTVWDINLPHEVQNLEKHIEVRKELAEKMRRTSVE

Recombinant cellcular LRRK2 alphaScreen assay (pIC50), ≥ 5.0:
CCOc1nc(Nc2ccc(C(=O)N3CC4CC4(CO)C3)cc2OC)nc2[nH]ccc12 (racemic) [Example E45, (±)-(4-((4-ethoxy-7H-pyrrolo-[2,3-d]-pyrimidin-2-yl)amino)-3-methoxyphenyl)(1-(hydroxymethyl)-3-azabicyclo-[3.1.0]-hexan-3-yl)methanone]
CCOc1nc(Nc2ccc(C(=O)N3CCC4(CC4)CC3CO)cc2OC)nc2[nH]ccc12 (racemic) [Example E48, (±)-(4-((4-ethoxy-7H-pyrrolo-[2,3-d]-pyrimidin-2-yl)amino)-3-methoxyphenyl)(5-(hydroxymethyl)-6-azaspiro-[2.5]-octan-6-yl)methanone]
CCOc1nc(Nc2ccc(C(=O)N3CC4CC4(CO)C3)cc2OC)nc2[nH]ccc12 (single isomer, unassigned) [Example E46, (4-((4-ethoxy-7H-pyrrolo-[2,3-d]-pyrimidin-2-yl)amino)-3-methoxyphenyl)(1-(hydroxymethyl)-3-azabicyclo-[3.1.0]-hexan-3-yl)methanone]
CCOc1nc(Nc2ccc(C(=O)N3CCC4(CC4)CC3CO)cc2OC)nc2[nH]ccc12 (single isomer, unassigned) [Example E49, (4-((4-ethoxy-7H-pyrrolo-[2,3-d]-pyrimidin-2-yl)amino)-3-methoxyphenyl)(5-(hydroxymethyl)-6-azaspiro[2.5]octan-6-yl)methanone]
CCOc1nc(Nc2ccc(C(=O)N3CCC4(CC3)CC4COC)cc2OC)nc2[nH]ccc12 (single isomer, unassigned) [Example E52, (4-((4-ethoxy-7H-pyrrolo-[2,3-d]-pyrimidin-2-yl)amino)-3-methoxyphenyl)(1-(methoxymethyl)-6-azaspiro-[2.5]-octan-6-yl)methanone]
CCOc1nc(Nc2ccc(C(=O)N3CCC4(CC3)CC4COC)cc2OC)nc2[nH]ccc12 (single isomer, unassigned) [Example E53, (4-((4-ethoxy-7H-pyrrolo-[2,3-d]-pyrimidin-2-yl)amino)-3-methoxyphenyl)(1-(methoxymethyl)-6-azaspiro-[2.5]-octan-6-yl)methanone]
CCOc1nc(Nc2ccc(C(=O)N3CC4CC4(COC)C3)cc2OC)nc2[nH]ccc12 (single isomer, unassigned) [Example E64, (4-((4-ethoxy-7H-pyrrolo-[2,3-d]pyrimidin-2-yl)amino)-3-methoxyphenyl)-(1-(methoxymethyl)-3-azabicyclo[3.1.0]hexan-3-yl)methanone]
CCOc1nc(Nc2cc(F)c(C(=O)N3CCOCC3)cc2OC)nc2[nH]ccc12 [Example E2, (4-((4-ethoxy-7H-pyrrolo-[2,3-d]-pyrimidin-2-yl)amino)-2-fluoro-5-methoxyphenyl)(morpholino)methanone]
CCOc1nc(Nc2ccc(C(=O)N3CCC(N4CCN(C)CC4)CC3)cc2OC)nc2[nH]ccc12 [Example E4, (4-((4-ethoxy-7H-pyrrolo-[2,3-d]pyrimidin-2-yl)amino)-3-methoxyphenyl)(4-(4-methylpiperazin-1-yl)-piperidin-1-yl)-methanone]
CCOc1nc(Nc2cc(F)c(C(=O)N3CCN(C)CC3)cc2OC)nc2[nH]ccc12 [Example E5, (4-((4-ethoxy-7H-pyrrol-[2,3-d]pyrimidin-2-yl)amino)-2-fluoro-5-methoxyphenyl)(4-methylpiperazin-1-yl)-methanone]
CCOc1nc(Nc2ccc(C(=O)N3CCN(C)CC3)cc2OCC2CC2)nc2[nH]ccc12 [Example E8, (3-(cyclopropylmethoxy)-4-((4-ethoxy-7H-pyrrolo-[2,3-d]-pyrimidin-2-yl)amino)phenyl)(4-methylpiperazin-1-yl)-methanone]
CCOc1nc(Nc2ccc(C(=O)N3CCC4(CC3)CC4)cc2OC)nc2[nH]ccc12 [Example E16, (4-((4-ethoxy-7H-pyrrolo-[2,3-d]-pyrimidin-2-yl)amino)-3-methoxyphenyl)(6-azaspiro-[2.5]octan-6-yl)methanone]
CCOc1nc(Nc2ccc(C(=O)N3CCN(C)[C@H](C)C3)cc2OC)nc2[nH]ccc12 [Example E29, (R)-(3,4-dimethylpiperazin-1-yl)-(4-((4-ethoxy-7H-pyrrolo-[2,3-d]-pyrimidin-2-yl)amino)-3-methoxyphenyl)methanone]
CCOc1nc(Nc2ccc(C(=O)N3CCN(C)CC3)cc2OC)nc2[nH]cc(C)c12 [Example E31, (4-((4-ethoxy-5-methyl-7H-pyrrolo-[2,3-d]pyrimidin-2-yl)amino)-3-methoxyphenyl)(4-methylpiperazin-1-yl)methanone]
CCOc1nc(Nc2ccc(C(=O)N3CCOCC3)cc2OC)nc2[nH]cc(C)c12 [Example E32, (4-((4-ethoxy-5-methyl-7H-pyrrolo-[2,3-d]pyrimidin-2-yl)amino)-3-methoxyphenyl)(morpholino)methanone]
CCOc1nc(Nc2ccc(C(=O)N3CCC[C@@H]3COC)cc2OC)nc2[nH]ccc12 [Example E35, (R)-(4-((4-ethoxy-7H-pyrrolo-[2,3-d]pyrimidin-2-yl)amino)-3-methoxyphenyl)(2-(methoxymethyl)pyrrolidin-1-yl)methanone]
CCOc1nc(Nc2ccc(C(=O)N3CCN(C)C[C@@H]3C)cc2OC)nc2[nH]ccc12 [Example E37, (S)-(2,4-dimethylpiperazin-1-yl)(4-((4-ethoxy-7H-pyrrolo-[2,3-d]-pyrimidin-2-yl)amino)-3-methoxyphenyl)methanone]
CCOc1nc(Nc2ccc(C(=O)N3CCN(C)CC3)c(Cl)c2OC)nc2[nH]ccc12 [Example E38, (2-chloro-4-((4-ethoxy-7H-pyrrolo-[2,3-d]pyrimidin-2-yl)amino)-3-methoxyphenyl)(4-methylpiperazin-1-yl)methanone]
CCOc1nc(Nc2ccc(C(=O)N3CCN(C)C[C@H]3C)cc2OC)nc2[nH]ccc12 [Example E40, (R)-(2,4-dimethylpiperazin-1-yl)(4-((4-ethoxy-7H-pyrrolo-[2,3-d]-pyrimidin-2-yl)-amino)-3-methoxyphenyl)methanone]
CCOc1nc(Nc2ccc(C(=O)N3CCN(C)[C@@H](C)C3)cc2OC)nc2[nH]ccc12 [Example E41, (S)-(3,4-dimethylpiperazin-1-yl)(4-((4-ethoxy-7H-pyrrolo-[2,3-d]-pyrimidin-2-yl)amino)-3-methoxyphenyl)methanone]
CCOc1nc(Nc2ccc(C(=O)N3CCC(COC)CC3)cc2OC)nc2[nH]ccc12 [Example E42, (4-((4-ethoxy-7H-pyrrolo-[2,3-d]-pyrimidin-2-yl)amino)-3-methoxyphenyl)(4-(methoxymethyl)piperidin-1-yl)methanone]
